Test results published in patent US20180028609A1 (UCL BUSINESS, published 2018).
Results are given in words; binding and its absence hold for the method and conditions named.

Molecular target: mouse Lrg1 (mouse)
Experiment: Biacore (SPR): recombinant mouse Lrg1 immobilised on the chip, mAb passed over at 100 nM

B1: Antibody 15C4 (mouse monoclonal antibody against human Lrg1) (antibody, V domains shown)
VH: QVQLQQSGDEVVRPGSSVKISCKASGYTFSGYWMNWVKQRPGQGLQWIGQIYPGDGDTNYNGKFKGKATLTADKSSSTAYMQLSTLTSEDSAIYFCARSITTVVLDYWGQGTTLTVSS
VL: DIVLTQSPVSLAVSLGQRATISCRASQSVSTSGYSFMHWYQQKPGQPPKFLIKYASNLESGVPARFSGSGSGTDFTLNIHPVEEEDTATYYCQHSWEMPLTFGAGTKLELK
notes: Murine hybridoma antibody; also called mouse 15C4; mAb 15C4
- binding: no binding (tested: 100 nM)
